Measurements as given in PMC12854861.
These are yes or no findings as the source states them, for the method shown. Binding seen in cells or lysates may run through a third protein. Some results given as binding are weak or reduced against the parent protein; the word gives no strength.

Amino acid sequences for entries named in this document (tags omitted). Residues count along the entry.
UniProt P37173, residues 23-567: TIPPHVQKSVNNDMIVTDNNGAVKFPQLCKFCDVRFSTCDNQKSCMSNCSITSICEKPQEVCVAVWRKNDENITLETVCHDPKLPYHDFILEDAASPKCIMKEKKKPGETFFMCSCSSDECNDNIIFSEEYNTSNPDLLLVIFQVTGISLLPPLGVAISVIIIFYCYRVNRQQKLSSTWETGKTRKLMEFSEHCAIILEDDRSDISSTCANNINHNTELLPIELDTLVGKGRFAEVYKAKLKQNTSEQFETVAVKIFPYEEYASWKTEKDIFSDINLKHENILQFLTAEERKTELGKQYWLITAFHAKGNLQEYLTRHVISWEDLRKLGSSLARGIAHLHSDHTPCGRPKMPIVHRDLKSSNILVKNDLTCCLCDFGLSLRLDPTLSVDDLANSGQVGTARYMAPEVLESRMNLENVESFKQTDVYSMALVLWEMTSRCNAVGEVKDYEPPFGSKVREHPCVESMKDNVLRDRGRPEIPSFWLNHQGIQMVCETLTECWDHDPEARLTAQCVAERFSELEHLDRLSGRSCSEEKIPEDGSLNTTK

T1: type 1 TGF-β receptor (TβRI) (UniProt P36897)
T1 sequence: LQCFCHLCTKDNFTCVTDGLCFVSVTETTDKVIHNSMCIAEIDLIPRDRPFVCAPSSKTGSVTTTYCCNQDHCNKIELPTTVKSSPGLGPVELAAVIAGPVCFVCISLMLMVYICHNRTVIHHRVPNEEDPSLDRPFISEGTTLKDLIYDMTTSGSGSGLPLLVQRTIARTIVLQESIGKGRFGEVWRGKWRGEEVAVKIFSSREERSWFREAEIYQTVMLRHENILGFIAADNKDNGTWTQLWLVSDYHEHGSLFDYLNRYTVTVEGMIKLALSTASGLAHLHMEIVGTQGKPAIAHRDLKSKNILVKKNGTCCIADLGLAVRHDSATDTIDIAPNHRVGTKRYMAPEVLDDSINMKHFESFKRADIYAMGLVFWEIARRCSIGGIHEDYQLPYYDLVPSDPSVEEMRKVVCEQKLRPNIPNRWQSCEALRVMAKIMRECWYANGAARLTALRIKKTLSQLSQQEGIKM


What was measured:
[1] = target: type 2 TGF-β receptor (TβRII) (UniProt P37173); experiment: co-IP; HEK-293T cells transfected with the indicated constructs; immunoprecipitation with anti-FLAG and anti-MYC antibodies, followed by immunoblotting
[2] = target: T1, type 1 TGF-β receptor (TβRI); experiment: as above

Row | binding [1] | binding [2] | Binder
1 | binds | binds | Neurensin 2 (NRSN2), wild type (protein, UniProt Q9GZP1 1-204) MMPSCNRSCSCSRGPSVEDGKWYGVRSYLHLFYEDCAGTALSDDPEGPPVLCPRRPWPSLCWKISLSSGTLLLLLGVAALTTGYAVPPKLEGIGEGEFLVLDQRAADYNQALGTCRLAGTALCVAAGVLLAICLFWAMIGWLSQDTKAEPLDPEADSHVEVFGDEPEQQLSPIFRNASGQSWFSPPASPFGQSSVQTIQPKRDS
2 | binds | binds | NRSN2 p.R104Q variant (c.311G > A) (protein, UniProt Q9GZP1 1-204) MMPSCNRSCSCSRGPSVEDGKWYGVRSYLHLFYEDCAGTALSDDPEGPPVLCPRRPWPSLCWKISLSSGTLLLLLGVAALTTGYAVPPKLEGIGEGEFLVLDQQAADYNQALGTCRLAGTALCVAAGVLLAICLFWAMIGWLSQDTKAEPLDPEADSHVEVFGDEPEQQLSPIFRNASGQSWFSPPASPFGQSSVQTIQPKRDS
3 | binds | binds | NRSN2 p.F183L variant (c.549C > G) (protein, UniProt Q9GZP1 1-204) MMPSCNRSCSCSRGPSVEDGKWYGVRSYLHLFYEDCAGTALSDDPEGPPVLCPRRPWPSLCWKISLSSGTLLLLLGVAALTTGYAVPPKLEGIGEGEFLVLDQRAADYNQALGTCRLAGTALCVAAGVLLAICLFWAMIGWLSQDTKAEPLDPEADSHVEVFGDEPEQQLSPIFRNASGQSWLSPPASPFGQSSVQTIQPKRDS
